The text below walks through data of BindingDB's records for doi:10.1128/AAC.00819-20 (Institut Pasteur Korea, 2020).

In the assay the target is Replicase polyprotein 1ab (Severe acute respiratory syndrome coronavirus 2, UniProt P0DTD1).

Each structure is given as a SMILES string.

In the case of `CC(C)(C)c1ccc(C(=O)CCCN2CCC(OC(c3ccccc3)c3ccccc3)CC2)cc1` [Bactil], it took 0.92 µM to reach half-maximal inhibition (IC50).
